Data on one molecule can be found in paper PMC4777437.

The chains behind the UniProt entries cited, without tags or fusion partners.
UniProt P19525: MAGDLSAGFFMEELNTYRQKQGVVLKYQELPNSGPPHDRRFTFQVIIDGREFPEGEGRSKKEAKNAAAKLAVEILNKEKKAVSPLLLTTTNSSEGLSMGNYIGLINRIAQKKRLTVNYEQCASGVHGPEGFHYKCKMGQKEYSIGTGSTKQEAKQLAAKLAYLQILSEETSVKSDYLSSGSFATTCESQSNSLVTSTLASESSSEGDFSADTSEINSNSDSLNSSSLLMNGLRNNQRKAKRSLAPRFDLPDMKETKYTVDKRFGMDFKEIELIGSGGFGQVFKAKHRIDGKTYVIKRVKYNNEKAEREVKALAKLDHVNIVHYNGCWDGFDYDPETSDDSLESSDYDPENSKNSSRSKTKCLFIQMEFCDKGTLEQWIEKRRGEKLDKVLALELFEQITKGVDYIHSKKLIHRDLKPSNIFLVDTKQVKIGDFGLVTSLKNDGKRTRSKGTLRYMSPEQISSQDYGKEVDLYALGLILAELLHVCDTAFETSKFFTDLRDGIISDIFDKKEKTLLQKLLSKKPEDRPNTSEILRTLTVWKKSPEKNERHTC

This assay concerns the target protein kinase R (PKR), endogenous (human (endogenous in HEK293T and A549)) (UniProt P19525).

No constants are given. Whether binding was seen depends on the method and setting. Binding seen in cells or lysates may run through a third protein. Some entries that bind do so weakly or less than the wild type.

B1: MDA5, endogenous (protein, UniProt Q9BYX4 1-1025)
chain: MSNGYSTDENFRYLISCFRARVKMYIQVEPVLDYLTFLPAEVKEQIQRTVATSGNMQAVELLLSTLEKGVWHLGWTREFVEALRRTGSPLAARYMNPELTDLPSPSFENAHDEYLQLLNLLQPTLVDKLLVRDVLDKCMEEELLTIEDRNRIAAAENNGNESGVRELLKRIVQKENWFSAFLNVLRQTGNNELVQELTGSDCSESNAEIENLSQVDGPQVEEQLLSTTVQPNLEKEVWGMENNSSESSFADSSVVSESDTSLAEGSVSCLDESLGHNSNMGSDSGTMGSDSDEENVAARASPEPELQLRPYQMEVAQPALEGKNIIICLPTGSGKTRVAVYIAKDHLDKKKKASEPGKVIVLVNKVLLVEQLFRKEFQPFLKKWYRVIGLSGDTQLKISFPEVVKSCDIIISTAQILENSLLNLENGEDAGVQLSDFSLIIIDECHHTNKEAVYNNIMRHYLMQKLKNNRLKKENKPVIPLPQILGLTASPGVGGATKQAKAEEHILKLCANLDAFTIKTVKENLDQLKNQIQEPCKKFAIADATREDPFKEKLLEIMTRIQTYCQMSPMSDFGTQPYEQWAIQMEKKAAKEGNRKERVCAEHLRKYNEALQINDTIRMIDAYTHLETFYNEEKDKKFAVIEDDSDEGGDDEYCDGDEDEDDLKKPLKLDETDRFLMTLFFENNKMLKRLAENPEYENEKLTKLRNTIMEQYTRTEESARGIIFTKTRQSAYALSQWITENEKFAEVGVKAHHLIGAGHSSEFKPMTQNEQKEVISKFRTGKINLLIATTVAEEGLDIKECNIVIRYGLVTNEIAMVQARGRARADESTYVLVAHSGSGVIEHETVNDFREKMMYKAIHCVQNMKPEEYAHKILELQMQSIMEKKMKTKRNIAKHYKNNPSLITFLCKNCSVLACSGEDIHVIEKMHHVNMTPEFKELYIVRENKALQKKCADYQINGEIICKCGQAWGTMMVHKGLDLPCLKIRNFVVVFKNNSTKKQYKKWVELPITFPNLDYSECCLFSDED
B1: the binding result is “binds”.
